Laboratory results as given in PMC7819943, “Rice protein-binding microarrays: a tool to detect cis-acting elements near promoter regions in rice”.
Some of the results follow.

Each sequence was assayed against T1, OsSMF1 (Oryza sativa, UniProt Q6ZLB0 1-436) (assay: protein-binding microarray (RPBM); PBS, 2% BSA, 51.3 ng/ul salmon testes DNA, 50 uM zinc acetate, 200 nM TF, 25 C, 1 h; high values mean tight binding). Settings: protein: recombinant; tags: N-terminal polyhistidine and DsRed monomer fusion (pET32a); chain copies: 2; label: CyDye5-dUTP incorporated in the synthesized complementary strand; 3' TTTTT single-stranded linker to array surface; dsDNA, one strand shown.
T1 sequence: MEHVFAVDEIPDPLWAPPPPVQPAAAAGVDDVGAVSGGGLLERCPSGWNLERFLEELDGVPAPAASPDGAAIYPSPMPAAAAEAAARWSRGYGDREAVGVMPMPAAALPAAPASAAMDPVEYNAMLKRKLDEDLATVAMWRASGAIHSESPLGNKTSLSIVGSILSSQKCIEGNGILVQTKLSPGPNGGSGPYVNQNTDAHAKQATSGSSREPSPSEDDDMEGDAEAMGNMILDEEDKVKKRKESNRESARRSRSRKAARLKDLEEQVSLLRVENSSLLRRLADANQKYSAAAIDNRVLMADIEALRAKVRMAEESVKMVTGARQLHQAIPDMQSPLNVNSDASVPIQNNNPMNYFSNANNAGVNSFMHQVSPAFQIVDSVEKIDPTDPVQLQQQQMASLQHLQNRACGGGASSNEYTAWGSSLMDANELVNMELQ
How it was run: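 For the binding signal, per-feature fluorescence intensity was read in arbitrary units on an Axon 4000B scanner. Before scanning, a 2% BSA-blocked custom Agilent array made double-stranded with Cy5-dUTP was washed after 1 h at 25 °C with 200 nM protein and 50 µM zinc acetate. The proteins were Ni–NTA-purified transcription factors with N-terminal polyhistidine and DsRed fusions, expressed in E. coli BL21-CodonPlus.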

Sequence	binding signal
GGGATCTTTAGGGAGCTCCACCATCACGTGACCCCAAGAGCGGAGTCACCTAGTGCAG	3480 fluorescence intensity (a.u.)
CTGCACTGCAAGTGACGTACACACACTATAGGACCTCGCTCGGAGTCACCTAGTGCAG	4000 fluorescence intensity (a.u.)
AAGCTTGGTTTTGCGATGACTCACCTCTAGTTGGAGAAGACGGAGTCACCTAGTGCAG	3930 fluorescence intensity (a.u.)
AAATGCTACTACTTACTTGGGCATGGCTGCCATGCCACAACGGAGTCACCTAGTGCAG	35700 fluorescence intensity (a.u.)
ACGTGGGTCCCACTTGCCACGTGAGCCAAAACCCGGGTATCGGAGTCACCTAGTGCAG	11200 fluorescence intensity (a.u.)
GAGGGACTTATTCCATCACCGTCACAATTGGGCCTCCATACGGAGTCACCTAGTGCAG	3920 fluorescence intensity (a.u.)
TTGTCAAATCATGGCGTCATTAGGCTTAAAAGATTCGTCTCGGAGTCACCTAGTGCAG	4280 fluorescence intensity (a.u.)
AATCCGCCGAGGGACTTATTGTGACCGGTTTTGATTAGTTCGGAGTCACCTAGTGCAG	19600 fluorescence intensity (a.u.)
TGTTTATTTCTCAAGGGCTTATCAAATATATCAAACCCCTCGGAGTCACCTAGTGCAG	21400 fluorescence intensity (a.u.)
ATACGGAGTTACTCACAGGAACTTCTAGTTCATCTGTCCTCGGAGTCACCTAGTGCAG	22600 fluorescence intensity (a.u.)
GCCTCGACCACGACGACGACCACGACGACAACGATACCACCGGAGTCACCTAGTGCAG	3280 fluorescence intensity (a.u.)
CGTTCCGCCGCCGCCGCCGTCGTCCAGGGCGAAGCTTGCGCGGAGTCACCTAGTGCAG	4570 fluorescence intensity (a.u.)
CTAGCGCATATTAGCCGTTGGTTGGTTTAGTATACGTACGCGGAGTCACCTAGTGCAG	3290 fluorescence intensity (a.u.)
AGGTTGCCAAACCTTTAGTACCTAAGATGTGGCATGCCATCGGAGTCACCTAGTGCAG	3740 fluorescence intensity (a.u.)
TTGGTTGTTTACATGCTTCTGCTGATGATGATGCAGTTCTCGGAGTCACCTAGTGCAG	3970 fluorescence intensity (a.u.)
TGTTTATCTATTTTGTGTTGGTATTATTATTTCTTGTATACGGAGTCACCTAGTGCAG	25500 fluorescence intensity (a.u.)
CTCCTCTCCGATGAAGACCTGCCACCGGTCTGAACCATCTCGGAGTCACCTAGTGCAG	64300 fluorescence intensity (a.u.)
GCTCATAGAGCTACACACTGATGACAAGACATAAGGGAAGCGGAGTCACCTAGTGCAG	4350 fluorescence intensity (a.u.)
CAGTGCTAACGGAGGTTAACCGGACGGCGATGGTAAATCGCGGAGTCACCTAGTGCAG	4520 fluorescence intensity (a.u.)
ATGCCGGCCCAATCTCACGAGAGTTTATTGGGATAGGATACGGAGTCACCTAGTGCAG	28300 fluorescence intensity (a.u.)
GCTGCTTCTCTTAATTCTTCACATACACGTATCGGTTAGTCGGAGTCACCTAGTGCAG	4250 fluorescence intensity (a.u.)

Sequence	binding signal
CGGTGGCGCCGTCACCGCGTCCGTCTCCACCTCCGCTTCTCGGAGTCACCTAGTGCAG	3170 fluorescence intensity (a.u.)
GAGTCTCCTCTCCTCCCTCCCTCCCTCCCTTCCCTTTGCCCGGAGTCACCTAGTGCAG	11300 fluorescence intensity (a.u.)
AGCGCTACAACATTCATGCCTTGCCACCTTGGTGCAGGCTCGGAGTCACCTAGTGCAG	3350 fluorescence intensity (a.u.)
CCTGGTTTTGCTTCCCCGCGACGTGCAGCAGTGGATGGAGCGGAGTCACCTAGTGCAG	26300 fluorescence intensity (a.u.)
TGTAACAAATTAGATTATCCCATTTGTCTGACGTTGCCTGCGGAGTCACCTAGTGCAG	4820 fluorescence intensity (a.u.)
TCACCGGTCTCATCCCCGTCATATGCATCCTTATCTCCAACGGAGTCACCTAGTGCAG	4020 fluorescence intensity (a.u.)
ATATATAGATTATTTTGACTTGAAATTGTGAAATTACTCTCGGAGTCACCTAGTGCAG	4300 fluorescence intensity (a.u.)
GCCAAAGATTGCAAGATCGATCGCAAGGTAACGTACACGTCGGAGTCACCTAGTGCAG	3510 fluorescence intensity (a.u.)
TCCAGTTGTGCGTGGAGATGTTGGTGAAGAGCTTCCGCTGCGGAGTCACCTAGTGCAG	4270 fluorescence intensity (a.u.)
TGCAAATTGCGAGACGGATTTATTAAGCCTAGTTAATCCGCGGAGTCACCTAGTGCAG	39400 fluorescence intensity (a.u.)
GCAAGCGGTCTCGCGTCATCATGCGACACTGTAACATCAACGGAGTCACCTAGTGCAG	5610 fluorescence intensity (a.u.)
GCCACTGATTGTGGAGGGTGTGGATTTGGATTTACGCATGCGGAGTCACCTAGTGCAG	3460 fluorescence intensity (a.u.)
CAGCAGCAGCAGCAAGGCACCTACTCCTAATCGTCTCATGCGGAGTCACCTAGTGCAG	3300 fluorescence intensity (a.u.)
CCTCCTCCTCGCCGTGGGCGGGGCGGATGGCGGCGGCGTTCGGAGTCACCTAGTGCAG	3770 fluorescence intensity (a.u.)
GAATTTCCCCTCCTTTTCCATGTCACCCGGTCCGCCCATTCGGAGTCACCTAGTGCAG	3180 fluorescence intensity (a.u.)
CATCATGTACAAGGCCTTGAGTAGATTGGGCCTCCAGCTACGGAGTCACCTAGTGCAG	12000 fluorescence intensity (a.u.)
GGATGTGAAATATGAGCTGGCTGTGAATGTGTCGTTGTGTCGGAGTCACCTAGTGCAG	6880 fluorescence intensity (a.u.)
TTGTTTAAAATATTAAGTCAATAATGTCTTGTGCTTTCAACGGAGTCACCTAGTGCAG	3340 fluorescence intensity (a.u.)
CGAAATTTGACGCCATGGAAGCTAGCGTGCATGTAGATCACGGAGTCACCTAGTGCAG	3520 fluorescence intensity (a.u.)
CTGAAAAGTTGTGTGTGTATGACATGTTGATGTGATGGAACGGAGTCACCTAGTGCAG	5180 fluorescence intensity (a.u.)
GTCAGTGGAAGAGAGAAGGTTATAGCAAAGCAGCAGCAACCGGAGTCACCTAGTGCAG	29600 fluorescence intensity (a.u.)

Sequence	binding signal
GTGAAATTAAATGGGAAATGGTTATGATTGGTTGAGACGACGGAGTCACCTAGTGCAG	3470 fluorescence intensity (a.u.)
TGTTGCTGTTGTCCGGTGTACATCCACAACTTCTTTGCCTCGGAGTCACCTAGTGCAG	3420 fluorescence intensity (a.u.)
CTCTAAGGCTATGTTTGGCACACCCTTCCCATCCCCTTTCCGGAGTCACCTAGTGCAG	3690 fluorescence intensity (a.u.)
TCGGCAGAGCTTGCCAAGACGACCTACGTCACCACCTTGCCGGAGTCACCTAGTGCAG	6790 fluorescence intensity (a.u.)
TCCCCAATGCTCAATGACACCATCATCCCCGCCGGGATTTCGGAGTCACCTAGTGCAG	4850 fluorescence intensity (a.u.)
ATTCTTCTAATATATTGACGTGTAATTCTTCTGCGCATTCCGGAGTCACCTAGTGCAG	12600 fluorescence intensity (a.u.)
CACCACTATCTCAACCGGATCGAGTCAGAGGCCAGAAGGGCGGAGTCACCTAGTGCAG	5070 fluorescence intensity (a.u.)
AAAATTTGTTGACAAATAGTCCCTACGTGGTCTGTGTTACCGGAGTCACCTAGTGCAG	3220 fluorescence intensity (a.u.)
AAGAAAACAACACTAAGTATATACGTGTATCTCAACCCACCGGAGTCACCTAGTGCAG	4940 fluorescence intensity (a.u.)
CTCACATACATCGAACACACACACACAACGTGTACAGCACCGGAGTCACCTAGTGCAG	3690 fluorescence intensity (a.u.)
CGCATACGATATCTGTGATAACCGCACGGATACTAAACCTCGGAGTCACCTAGTGCAG	3820 fluorescence intensity (a.u.)
TTGACATTACCTGACATCAGTGTGTCACCATCTAATTTTACGGAGTCACCTAGTGCAG	4980 fluorescence intensity (a.u.)
GATAGCTGCAAAAGCTCAATTATACACGTAGGAGTAGTTCCGGAGTCACCTAGTGCAG	3410 fluorescence intensity (a.u.)
AGATACTCTAAAAGTACGGTGAGGGTAGGATGATGTGAAGCGGAGTCACCTAGTGCAG	32200 fluorescence intensity (a.u.)
TAATTCCACCCATGTACGGATTTGGATCTAATTATGTTAACGGAGTCACCTAGTGCAG	4910 fluorescence intensity (a.u.)
GACACTCCAGCCCAGCAGGCTTACCTGTCAGGAGCCCACTCGGAGTCACCTAGTGCAG	4520 fluorescence intensity (a.u.)
TAATTGCAATTAACCCCACGTCAGCGATCCGCCTCTAAACCGGAGTCACCTAGTGCAG	22300 fluorescence intensity (a.u.)
CATTTAAGTGACATGTAAACAACGAGGGAACTTAACATCCCGGAGTCACCTAGTGCAG	3930 fluorescence intensity (a.u.)
CTCCACCGGAGTTGACGTACGAGGATGATGATGATGATGACGGAGTCACCTAGTGCAG	4720 fluorescence intensity (a.u.)
AGTGGGGCCTACCTGTCAGTGACTCCACCCCTATATTCTCCGGAGTCACCTAGTGCAG	4740 fluorescence intensity (a.u.)
ATTAGAATCGAGAATTGTGTGTTGGCATGTATCCACATGTCGGAGTCACCTAGTGCAG	4450 fluorescence intensity (a.u.)

Pulled one by one from the entries so far:
Sequence	binding signal
ATGCCGGCCCAATCTCACGAGAGTTTATTGGGATAGGATACGGAGTCACCTAGTGCAG	28300 fluorescence intensity (a.u.)
CTCTAAGGCTATGTTTGGCACACCCTTCCCATCCCCTTTCCGGAGTCACCTAGTGCAG	3690 fluorescence intensity (a.u.)
CCTCCTCCTCGCCGTGGGCGGGGCGGATGGCGGCGGCGTTCGGAGTCACCTAGTGCAG	3770 fluorescence intensity (a.u.)

Next part.

Sequence	binding signal
TTCTGCACCTTCATTTATTTGTAGGTTTACGACAGCCTCTCGGAGTCACCTAGTGCAG	3720 fluorescence intensity (a.u.)
TGTTGTTATGGAAACATACGTGCGTGCATGATTAGTTATTCGGAGTCACCTAGTGCAG	3180 fluorescence intensity (a.u.)
GCAGCCGACCACGCCACCTTGCTTTGCGCTGCTACCTCCACGGAGTCACCTAGTGCAG	5040 fluorescence intensity (a.u.)
TCATCATCATCATTGGACAAATCCAACGTGCCTCATCACTCGGAGTCACCTAGTGCAG	4440 fluorescence intensity (a.u.)
TTTCACGAAACCCAGTGATCCTGTCAGGTATCCTATGTACCGGAGTCACCTAGTGCAG	3760 fluorescence intensity (a.u.)
CCTCCACCTGTGCCCTCCCGCGGTCAGCAACCGTATCGCTCGGAGTCACCTAGTGCAG	3950 fluorescence intensity (a.u.)
CTCCTGGAGGGCGAAGACGTGGAGGCGGTGGTGGTATTCGCGGAGTCACCTAGTGCAG	3600 fluorescence intensity (a.u.)
CGCGCGGATCTGTCCTCTTTGACCTGGATGACGTGGGATCCGGAGTCACCTAGTGCAG	15400 fluorescence intensity (a.u.)
AAATCTCAACCCGTACACGTACGCGTCTGCGAAATTAATCCGGAGTCACCTAGTGCAG	4440 fluorescence intensity (a.u.)
CAGCGCCTGTTGCTGATCCCATCCCATTATAACCTTAGTTCGGAGTCACCTAGTGCAG	14700 fluorescence intensity (a.u.)
TCTCCAGTCCTTGTTCGCCACGACACGTCTTACTTGACTGCGGAGTCACCTAGTGCAG	6720 fluorescence intensity (a.u.)
TTGCGGAATCATCAGTGCTATATGTTGTGCAGAATTGGATCGGAGTCACCTAGTGCAG	3150 fluorescence intensity (a.u.)
GTCAGGGTTCAATTTCCTGACATGTATGCACACACGTCAGCGGAGTCACCTAGTGCAG	15200 fluorescence intensity (a.u.)
TCCTCCTGGCGCACCAGCTCCTGTCGGCGGCGGCGTATCACGGAGTCACCTAGTGCAG	3860 fluorescence intensity (a.u.)
ATCCATGCTCTGGCCTCCTCTTTGATTTTCGTCAGCAAGCCGGAGTCACCTAGTGCAG	4850 fluorescence intensity (a.u.)
AGTAGAGTCGCCAACTACCCTAACCTAGCAATCACCGCATCGGAGTCACCTAGTGCAG	17800 fluorescence intensity (a.u.)
TTCCAACCCGCCCCGTGTGCTGACGTGGCAGCCATGTTGGCGGAGTCACCTAGTGCAG	19300 fluorescence intensity (a.u.)
CGTACGCATAATAACGCGTAATATGATCAAGTCATGTGTGCGGAGTCACCTAGTGCAG	3510 fluorescence intensity (a.u.)
TACGGCCCCACTTTTATTTTCAATTCATTTGATGACTAGGCGGAGTCACCTAGTGCAG	6350 fluorescence intensity (a.u.)
TCTTTCCATTTGCACATAGGCCAACTCAGTTCAAGTGGCCCGGAGTCACCTAGTGCAG	3250 fluorescence intensity (a.u.)
AACTATGAGCTTATGAGCTTGGATACATACTAGTTCAGATCGGAGTCACCTAGTGCAG	5800 fluorescence intensity (a.u.)
